The supplement of paper PMC11438910
The other results are listed elsewhere or left out. Only a few entries rise above the background.

How the values were obtained:
Experiment in all cases: fluorescence intensity of antibody binding to polysaccharide-coupled beads; higher = stronger binding
[1] = molecular target: pneumococcal polysaccharide Pn33B
[2] = molecular target: pneumococcal polysaccharide Pn33C
[3] = molecular target: pneumococcal polysaccharide Pn33D
[4] = molecular target: pneumococcal polysaccharide Pn33F
[5] = molecular target: pneumococcal polysaccharide Pn34
[6] = molecular target: pneumococcal polysaccharide Pn35A
[7] = molecular target: pneumococcal polysaccharide Pn35B
[8] = molecular target: pneumococcal polysaccharide Pn35C
[9] = molecular target: pneumococcal polysaccharide Pn35F
[10] = molecular target: pneumococcal polysaccharide Pn36
[11] = molecular target: pneumococcal polysaccharide Pn37
[12] = molecular target: pneumococcal polysaccharide Pn38
[13] = antibody concentration 2.8593 ng/mL
[14] = antibody concentration 15.2894 ng/mL
[15] = antibody concentration 81.7561 ng/mL
[16] = antibody concentration 437.17 ng/mL
[17] = antibody concentration 2337.65 ng/mL
[18] = antibody concentration 12500 ng/mL
[19] = antibody concentration 0.1 ng/mL
[20] = antibody concentration 0.534724 ng/mL

B1: 4-80.4 (protein)
chain 1: QVQLQESGPGLVKPSETLSLTCAVSGGSFSSYWWSWIRQSPGKGLEWIGEISGNSGSTNYNPSLKSRVTISKDASKNQFSLKLSSVTAADTAVYYCARYKEYWGQGVLVTVSS
chain 2: DVVMTQSPLSLLITPGQPASISCRSSQSLVHSNGNTYLSWYQQKPGQPPRRLLYEVSNRDSGVPDRFSGSGAGTDFTLKISRVEAEDVGVYYCGQGTHLPYSFGQGTKVEIK
B1 gave a fluorescence intensity [1, 13] of 18.2 MFI, a fluorescence intensity [1, 14] of 18.5 MFI and a fluorescence intensity [1, 15] of 17.2 MFI. For the same binder, the fluorescence intensity [1, 16] was 18 MFI, the fluorescence intensity [1, 17] was 19 MFI and the fluorescence intensity [1, 18] was 19.5 MFI. For the same binder, the fluorescence intensity [2, 19] was 18.2 MFI, the fluorescence intensity [2, 20] was 19.5 MFI and the fluorescence intensity [2, 13] was 21.2 MFI. The fluorescence intensity [2, 14] was 20 MFI, the fluorescence intensity [2, 15] was 18 MFI and the fluorescence intensity [2, 16] was 18.5 MFI. The fluorescence intensity [2, 17] was 20.5 MFI, the fluorescence intensity [2, 18] was 32 MFI and the fluorescence intensity [3, 19] was 16.8 MFI. The fluorescence intensity [3, 20] was 17 MFI, the fluorescence intensity [3, 13] was 17 MFI and the fluorescence intensity [3, 14] was 15.8 MFI. The fluorescence intensity [3, 15] was 17.5 MFI, the fluorescence intensity [3, 16] was 17.5 MFI and the fluorescence intensity [3, 17] was 15.5 MFI. The fluorescence intensity [3, 18] was 21.5 MFI, the fluorescence intensity [4, 19] was 11.5 MFI and the fluorescence intensity [4, 20] was 13.5 MFI. The fluorescence intensity [4, 13] was 12.8 MFI, the fluorescence intensity [4, 14] was 13.5 MFI and the fluorescence intensity [4, 15] was 13.8 MFI. For the same binder, the fluorescence intensity [4, 16] was 13.2 MFI, the fluorescence intensity [4, 17] was 19 MFI and the fluorescence intensity [4, 18] was 58.5 MFI. For the same binder, the fluorescence intensity [5, 19] was 12.5 MFI, the fluorescence intensity [5, 20] was 14.2 MFI and the fluorescence intensity [5, 13] was 13 MFI. It also gave a fluorescence intensity [5, 14] of 15 MFI, a fluorescence intensity [5, 15] of 14 MFI and a fluorescence intensity [5, 16] of 15.8 MFI. The fluorescence intensity [5, 17] was 15 MFI, the fluorescence intensity [5, 18] was 18 MFI and the fluorescence intensity [6, 19] was 16.8 MFI. It also gave a fluorescence intensity [6, 20] of 16 MFI, a fluorescence intensity [6, 13] of 16.5 MFI and a fluorescence intensity [6, 14] of 17.5 MFI. It also gave a fluorescence intensity [6, 15] of 16.8 MFI, a fluorescence intensity [6, 16] of 17 MFI and a fluorescence intensity [6, 17] of 19 MFI. For the same binder, the fluorescence intensity [6, 18] was 42.8 MFI, the fluorescence intensity [7, 19] was 17 MFI and the fluorescence intensity [7, 20] was 17.5 MFI. It also gave a fluorescence intensity [7, 13] of 17 MFI, a fluorescence intensity [7, 14] of 16.5 MFI and a fluorescence intensity [7, 15] of 18.5 MFI. It also gave a fluorescence intensity [7, 16] of 20.5 MFI, a fluorescence intensity [7, 17] of 21.5 MFI and a fluorescence intensity [7, 18] of 32.5 MFI. The fluorescence intensity [8, 19] was 20 MFI, the fluorescence intensity [8, 20] was 20 MFI and the fluorescence intensity [8, 13] was 20.5 MFI. It also gave a fluorescence intensity [8, 14] of 19 MFI, a fluorescence intensity [8, 15] of 20.5 MFI and a fluorescence intensity [8, 16] of 19 MFI. It also gave a fluorescence intensity [8, 17] of 21.5 MFI, a fluorescence intensity [8, 18] of 23 MFI and a fluorescence intensity [9, 19] of 21 MFI. For the same binder, the fluorescence intensity [9, 20] was 19 MFI, the fluorescence intensity [9, 13] was 21 MFI and the fluorescence intensity [9, 14] was 21 MFI. For the same binder, the fluorescence intensity [9, 15] was 19.5 MFI, the fluorescence intensity [9, 16] was 18.5 MFI and the fluorescence intensity [9, 17] was 19.8 MFI. For the same binder, the fluorescence intensity [9, 18] was 19.5 MFI, the fluorescence intensity [10, 19] was 15 MFI and the fluorescence intensity [10, 20] was 15 MFI. For the same binder, the fluorescence intensity [10, 13] was 14 MFI, the fluorescence intensity [10, 14] was 15.2 MFI and the fluorescence intensity [10, 15] was 15 MFI. The fluorescence intensity [10, 16] was 15 MFI, the fluorescence intensity [10, 17] was 18.5 MFI and the fluorescence intensity [10, 18] was 38 MFI. It also gave a fluorescence intensity [11, 19] of 24.5 MFI, a fluorescence intensity [11, 20] of 26 MFI and a fluorescence intensity [11, 13] of 25.5 MFI. For the same binder, the fluorescence intensity [11, 14] was 24.5 MFI, the fluorescence intensity [11, 15] was 25.5 MFI and the fluorescence intensity [11, 16] was 26.5 MFI. The fluorescence intensity [11, 17] was 33 MFI, the fluorescence intensity [11, 18] was 128 MFI and the fluorescence intensity [12, 19] was 25.2 MFI. It also gave a fluorescence intensity [12, 20] of 25 MFI, a fluorescence intensity [12, 13] of 25.2 MFI and a fluorescence intensity [12, 14] of 24.8 MFI.
